# Measurements taken from US20080269102A1, “3-(2-Alkoxycarbonyloxy-Phenyl) Acrylic Acid Esters And Their Use As Precursors For The Delivery Of Olfactory Compounds” (GIVAUDAN SA, priority 2004, published 2008).
# Assay: Deposition and cleavage of fragrance precursors on cotton towels in a wash/rinse cycle with fabric conditioner
# Conditions: for Free prec. [Depos. %]: unprotected precursor found on cotton towels after 40° C. wash/rinse cycle and 24 h drying in the dark; for Free prec. [Depos. %] / Modified Prec. [Depos. %]: mean of three towels, % of theory of molar amount applied; for Cleavage [%]: cleavage of protecting group, washing powder containing protease, cellulase and lipase; for Modified Prec. [Depos. %]: protected precursor found on cotton towels after 40° C. wash/rinse cycle and 24 h drying in the dark
SMILES,Free prec. [Depos. %] [%],Cleavage [%],Modified Prec. [Depos. %] [%]
"C=CCCCCCCCCOC(=O)C=Cc1ccccc1O [Example 2, 3-(2-Hydroxy-phenyl)acrylic acid dec-9-enyl ester]",46,,
"CC(C)=CCCC(C)CCOC(=O)C=Cc1ccccc1O (centres unmarked) [Example 1, 3-(2-Hydroxy-phenyl)acrylic acid 3,7-dimethyl-oct-6-enyl ester]",45,,
"CCC=CCCOC(=O)Oc1ccccc1C=CC(=O)OCCC(C)CCC=C(C)C (centres unmarked) [Example 6, 3-(2-Hex-3-enyloxycarbonyloxy-phenyl)acrylic acid 3,7-dimethyl-oct-6-enyl ester]",50,97,2
"C=CCCCCCCCCOC(=O)C=Cc1ccccc1OC(=O)OCCCCCCCCC=C [Example 4, 3-(2 Dec. 9-enyloxycarbonyloxy-phenyl)acrylic acid dec-9-enyl ester]",34,68,32
"CC(C)=CCCC(C)CCOC(=O)C=Cc1ccccc1OC(=O)OCCC(C)CCC=C(C)C (centres unmarked) [Example 5, 3-[2-(3,7-Dimethyl-oct-6-enyloxycarbonyloxy)phenyl]acrylic acid 3,7-dimethyl-oct-6-enyl ester]",11,14,69
"C=CCCCCCCCCOC(=O)C=Cc1ccccc1OC(=O)OCC [Example 14, 3-(2-Ethoxycarbonyloxy-phenyl)acrylic acid dec-9-enyl ester]",42,91,5
C=CCCCCCCCCOC(=O)C=Cc1ccccc1OC(=O)Oc1ccccc1C=CC(=O)OCCCCCCCCC=C [Example 3],66,66,34
